Measured values from article doi:10.1101/720508.

Target: T1, GPR151 (mouse (endogenous in IPN)) (UniProt Q7TSN6)
T1 sequence: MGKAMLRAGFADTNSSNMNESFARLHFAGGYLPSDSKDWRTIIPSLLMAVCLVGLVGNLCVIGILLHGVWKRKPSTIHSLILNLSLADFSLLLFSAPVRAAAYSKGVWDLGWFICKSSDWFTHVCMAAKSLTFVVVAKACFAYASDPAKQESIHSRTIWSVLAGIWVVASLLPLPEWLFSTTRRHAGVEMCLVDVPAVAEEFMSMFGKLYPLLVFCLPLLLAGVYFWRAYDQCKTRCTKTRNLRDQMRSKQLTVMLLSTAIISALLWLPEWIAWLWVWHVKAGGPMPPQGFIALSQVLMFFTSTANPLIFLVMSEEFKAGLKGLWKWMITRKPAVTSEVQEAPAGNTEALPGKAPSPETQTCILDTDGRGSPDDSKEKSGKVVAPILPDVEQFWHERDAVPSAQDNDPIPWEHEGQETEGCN
Assay: affinity purification with mass spectrometry

AT1A2 (sodium/potassium ATPase catalytic α-subunit) (from UniProt Q6PIE5 1-1020)
binding: binds

These are yes or no findings as the source states them, for the method shown. In cells and extracts the contact can be indirect. These calls come from enrichment with a bait or labelling near it, and not all partners need be listed.
